Data taken from PubChem BioAssay AID1508600 (Functional Genomics Laboratory (NCATS/FGL), 2020).
The whole screen tested about 53,000 sequences, of which about 3,700 (7%) were called active.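 Rule for the calls: active = gene knockdowns whose robust z-score for IL-1 alpha signal is at least 2 or at most -2, so actives lie on both sides; inactive = the rest.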 Some of the results follow.

Experiment: Components of the Cytosolic LPS Sensing Pathway: Gene Identification via Genome-wide siRNA Screen;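 note: robust z of the log signal after scaling to non-targeting control siRNA wells of the plate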
Conditions: RAW264.7 macrophages, IL-1a HTRF, actives lie on both sides, screened at 100 nM (by protocol), cells primed 5 h with Pam3CSK4 first
How it was run: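 Cells (RAW264.7, 1×10^4 per well) were transfected with siRNA at 100 nM and cultured 48h at 37 degrees C. Pam3CSK4 was added for 5 hours; LipidA transfection followed for 24 hour. IL-1a was then measured by HTRF.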
With GGGUUUAAGUAUGUUGUAATT against Exoc8 the z-score was inactive: -1.43. With GCUACAUUCCUCAAAUACCTT against G6pdx the z-score was inactive: -0.443. In the case of CGCACUGCUAAUCAUUCCCTT against Slc35f2, the z-score is reported as inactive: -0.00246. In the case of GGCAGUGGCUAUCAUGAGATT against Dpep1, the z-score is reported as inactive: -0.748. With GCAACUAUGACCAUAAACUTT against Gabre the z-score was inactive: 0.333. With GCUCCAUUUAUGCUCCCAGTT against Zfp65 the z-score was inactive: -0.024. With GGAUCGACAGCAUCAUUCUTT against Pea15b the z-score was inactive: -0.624. In the case of GCUAGAAAAUCUCUCCAACTT against Cnn2, the z-score is reported as inactive: -0.551. For AUACCCAACACCUAGUAACTT against Sval3, the z-score was inactive: -0.794. In the case of GGCCUAGAAAGGAAUGAUATT against Nufip2, the z-score is reported as inactive: -0.725. For GGUGGAUUCUAGCUUGUCGTT against Dusp10, the z-score was inactive: 0.883. For GGAUGACACAACUAUGACATT against Lmbr1, the z-score was inactive: -0.188. For UCUGGGUGUAAUGAAGGAGTT against Ces2b, the z-score was inactive: 0.786. In the case of CGGUAGAAGGCUUAGGCAATT against Aox1, the z-score is reported as inactive: -0.922. In the case of GGAACACAGAGAAUACAAATT against Sdccag8, the z-score is reported as inactive: 1.06. In the case of GCAUGUUGAAAUCAAUUGATT against Cacnb4, the z-score is reported as inactive: 0.595. With GGAGCUUUGCUUAGCACUGTT against Ccdc85b the z-score was inactive: -1.27. In the case of GGCCUAACAGAACUGUGAGTT against P2ry2, the z-score is reported as inactive: -0.611. With GCUAUGAUCGAUCAAAUUCTT against Hexdc the z-score was inactive: 0.604. In the case of GGACAUGGAUUUCAUCAUGTT against Slc35a5, the z-score is reported as inactive: 0.154. For CCAAGUAUGAGGAACGAGUTT against Creb3l3, the z-score was inactive: -0.443. In the case of GGCAAGUCCUAGUUUUGUUTT against Ackr1, the z-score is reported as inactive: -1.65. With GCCUUGAUAAUUUUGUAAGTT against Gimap9 the z-score was inactive: 0.533. In the case of CCCAUGACCUAUGUUGUAGTT against Xpc, the z-score is reported as inactive: -0.473. For CCCACUGCAUUACUCACUCTT against Olfr873, the z-score was inactive: -1.01. With GCGUGAGAAAACCUUGGAUTT against Tas2r115 the z-score was inactive: 0.342. For GGAGAAGGACCAUCUAAAGTT against Cmah, the z-score was inactive: 0.901. For GGCAUACCGUAAAAGUGGCTT against Olfr73, the z-score was inactive: -1.95. In the case of GCCAGUUGACUCUUCUUUATT against Zbtb44, the z-score is reported as inactive: -0.238. For GGAUUCAUAGACUUCAUAGTT against Impdh1, the z-score was inactive: 0.608. With GGAACCAAUCCACCUGAUUTT against Tas2r136 the z-score was inactive: 0.402. In the case of GGACUUCUAUGAUUGGCUGTT against Por, the z-score is reported as inactive: 1.02. For GGUAGCUGUCAACAAGGCATT against Akt2, the z-score was inactive: 0.409. For GGCUAACCCUUUCAAGGAGTT against Cib1, the z-score was inactive: -1.08. With GGAGUUUGGGAACACUUUGTT against Apoc1 the z-score was inactive: 0.617. For GGCUGACCUAAAGAAGGAGTT against Cnot3, the z-score was inactive: -0.725. With GGAGUUCACCAGCUACCAATT against Myoz3 the z-score was inactive: -0.537. For CCUGAAGCCUCAAUACACATT against Ugt1a1, the z-score was inactive: 0.967. In the case of CGAGGAUGCUUUUUAAAAATT against Inip, the z-score is reported as inactive: -0.0653. For GGUGUUGUAUUCAGGCUGGTT against Slc41a1, the z-score was inactive: -0.397. With GCUGAUAAAGUUUUUGUCUTT against Tas2r104 the z-score was inactive: -0.17. With GCAUUAUGGAAAGUUGGAGTT against Gabra4 the z-score was inactive: 0.915. With CCUUGAUGGAUGUUACCAATT against Asah1 the z-score was inactive: 0.12. With GGCUAUGAGUUUUUCUAUUTT against Sart3 the z-score was inactive: -0.738. With CGAAAUUUAACUUGAACAGTT against Toporsl the z-score was inactive: 0.659. With GGGAACACAGCUAUUUCCUTT against Olfr808 the z-score was inactive: 1.32. With GGAUCCAAGGCAAAGAUGUTT against Fto the z-score was inactive: 1.73. In the case of GCAACAUGAAGAUAAGUGCTT against Zbtb1, the z-score is reported as inactive: 0.384. In the case of GGGUUAGGUUUUGAUGUAATT against Abhd5, the z-score is reported as inactive: -0.271. With GGUCUUACGCAAAACGGUCTT against Csf1r the z-score was active: 2.86. With GGCUAUUUCUUUUUAUGCUTT against Ak4 the z-score was inactive: 0.911. In the case of GGAAGAAAUUCGAUGAUGATT against Mcrs1, the z-score is reported as inactive: -1.59. With GGUAAAGAGCAGUGAUAUCTT against Pls3 the z-score was inactive: 0.663. With CGAUUCAUUCAGUUUGUAATT against Terb1 the z-score was inactive: -0.631.
